Consider three substances from publication PMC12167373.

The chains behind the UniProt entries cited, without tags or fusion partners. Where a name states a change or a piece, a line headed by the entry shows the natural chain unless it says otherwise. Residues count along the entry.
UniProt Q14694: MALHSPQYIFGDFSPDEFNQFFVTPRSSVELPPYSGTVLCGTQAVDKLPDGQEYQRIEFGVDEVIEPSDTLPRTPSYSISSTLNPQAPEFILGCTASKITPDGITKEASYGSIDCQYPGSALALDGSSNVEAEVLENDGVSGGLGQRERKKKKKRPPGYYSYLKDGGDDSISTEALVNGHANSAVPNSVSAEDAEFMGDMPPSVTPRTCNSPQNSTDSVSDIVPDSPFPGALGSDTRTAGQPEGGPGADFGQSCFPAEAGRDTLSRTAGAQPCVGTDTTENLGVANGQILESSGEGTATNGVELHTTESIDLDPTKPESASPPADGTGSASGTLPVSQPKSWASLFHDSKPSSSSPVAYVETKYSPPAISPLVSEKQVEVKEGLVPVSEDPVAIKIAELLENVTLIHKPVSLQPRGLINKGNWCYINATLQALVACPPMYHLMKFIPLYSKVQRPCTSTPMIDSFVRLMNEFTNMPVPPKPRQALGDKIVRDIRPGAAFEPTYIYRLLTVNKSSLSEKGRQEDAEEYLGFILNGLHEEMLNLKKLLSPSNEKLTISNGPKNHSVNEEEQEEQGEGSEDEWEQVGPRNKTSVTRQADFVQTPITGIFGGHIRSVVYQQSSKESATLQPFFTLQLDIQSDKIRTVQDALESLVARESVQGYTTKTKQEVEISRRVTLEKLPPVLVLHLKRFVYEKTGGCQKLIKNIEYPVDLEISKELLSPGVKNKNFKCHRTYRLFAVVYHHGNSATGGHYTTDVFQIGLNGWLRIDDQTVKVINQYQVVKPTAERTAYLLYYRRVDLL
USP10 fragment, amino acids 1-206: residues 1-206 of Q14694
UniProt P53350: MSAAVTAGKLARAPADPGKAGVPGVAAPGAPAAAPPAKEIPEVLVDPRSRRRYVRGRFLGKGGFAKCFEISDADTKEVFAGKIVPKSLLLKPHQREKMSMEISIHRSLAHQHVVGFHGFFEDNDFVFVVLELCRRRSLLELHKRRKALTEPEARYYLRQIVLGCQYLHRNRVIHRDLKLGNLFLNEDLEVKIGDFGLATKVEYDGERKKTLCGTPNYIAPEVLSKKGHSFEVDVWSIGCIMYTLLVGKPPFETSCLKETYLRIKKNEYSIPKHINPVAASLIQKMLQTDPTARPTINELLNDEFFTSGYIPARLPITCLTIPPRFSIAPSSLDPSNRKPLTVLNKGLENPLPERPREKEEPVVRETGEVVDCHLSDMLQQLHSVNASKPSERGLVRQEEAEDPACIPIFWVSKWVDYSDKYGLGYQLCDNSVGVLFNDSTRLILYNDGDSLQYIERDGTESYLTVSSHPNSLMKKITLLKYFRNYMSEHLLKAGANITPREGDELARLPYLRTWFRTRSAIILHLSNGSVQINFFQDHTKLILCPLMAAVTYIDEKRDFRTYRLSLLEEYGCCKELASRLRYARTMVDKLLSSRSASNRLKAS

No constants are given. Whether binding was seen depends on the method and setting. For some of these results: In cells and extracts the contact can be indirect. Some entries that bind do so weakly or less than the wild type.

Assay [1] concerns the target Ubiquitin-specific peptidase 10 (USP10), endogenous (human (endogenous in PANC-1 and MIAPaCa-2)) (UniProt Q14694). The assay is described as follows: co-IP; endogenous proteins in PANC-1 and MIAPaCa-2 cells; IP lysis buffer, primary antibody and protein A/G agarose beads, 4 °C overnight.
In assay [2] the target is USP10 fragment, amino acids 1-206 (UniProt Q14694). In words: co-IP; exogenous proteins from plasmids transfected into HEK293 cells; IP lysis buffer, primary antibody and protein A/G agarose beads, 4 °C overnight; full length and fragments.
In assay [3] the target is exogenous USP10, full length (UniProt Q14694). Described as above.
The target in assay [4] is GST-USP10 (UniProt Q14694). In words: pull-down; GST-USP10 held on Glutathione Sepharose 4B; 1 μg rPLK1 added in NETN buffer, 4 °C for 4 h; washed three times with NETN buffer; both purified.

For the substance “PLK1, endogenous (from UniProt P53350 1-603) (enzyme)”, in assay [1], the binding entry is given as “binds”.
Turning to “exogenous PLK1, full length (from UniProt P53350 1-603) (enzyme)”, the binding result in assay [2] and in assay [3] was “binds” in each case.
For the substance “recombinant PLK1 (from UniProt P53350 1-603) (enzyme)”, in assay [4], the binding result is “binds”.
